PubChem BioAssay AID1508597 | Cure First – 2020

Aim: 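Genes whose silencing sensitises or protects ovarian cancer cells against rucaparib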 (primary screen)
Cell system: human ovarian carcinoma lines grown from tumours: OCI-P5x (papillary serous) and OCI-C5x (clear cell)
Reagent: siRNA pool against human genes, 1.25 pmol siRNA per well
Time to read-out: 72 h or 96 h, depending on the cell culture
Challenge: rucaparib 20 µM (about IC30) or vehicle, present until read-out
Rucaparib or vehicle: Vehicle
Cell line: OCI-P5x (serous)
Read-out: 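Luminescent ATP-based viability assay read 72 or 96 h after transfection, depending on culture, given as normalised percent viability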
Scale: viability, normalised: higher = more viable cells remaining
Call rule: 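a well counts as a hit if its normalised viability is under 80 percent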
Calls: active = viability under 80%; inactive = viability 80% or more
This is a random part of the about 2,100 reagents, under one of the conditions tested. 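Calls flag viability under 80% in either arm, not effects specific to rucaparib; the reference for percent is not stated.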 The record does not give: the 100% reference.

gene symbol | technical replicate | viability, normalised (%) | outcome
RAD23B (RAD23 nucleotide excision repair protein B) | 1 | 69.6 | active
RAD23B (RAD23 nucleotide excision repair protein B) | 2 | 62.8 | active
RAD23B (RAD23 nucleotide excision repair protein B) | 3 | 55.2 | active
PHF23 (PHD finger protein 23) | 1 | 51.1 | active
PHF23 (PHD finger protein 23) | 2 | 54.9 | active
PHF23 (PHD finger protein 23) | 3 | 51.1 | active
CETN2 (centrin 2) | 1 | 42 | active
CETN2 (centrin 2) | 2 | 42.8 | active
CETN2 (centrin 2) | 3 | 47.7 | active
CAMKK2 (calcium/calmodulin dependent protein kinase kinase 2) | 1 | 85.1 | inactive
CAMKK2 (calcium/calmodulin dependent protein kinase kinase 2) | 2 | 74.9 | active
CAMKK2 (calcium/calmodulin dependent protein kinase kinase 2) | 3 | 72.3 | active
CHMP4A (charged multivesicular body protein 4A) | 1 | 57.1 | active
CHMP4A (charged multivesicular body protein 4A) | 2 | 86.9 | inactive
CHMP4A (charged multivesicular body protein 4A) | 3 | 87.4 | inactive
MAST3 (microtubule associated serine/threonine kinase 3) | 1 | 71.4 | active
MAST3 (microtubule associated serine/threonine kinase 3) | 2 | 75.8 | active
MAST3 (microtubule associated serine/threonine kinase 3) | 3 | 89.3 | inactive
CDT1 (chromatin licensing and DNA replication factor 1) | 1 | 66.6 | active
CDT1 (chromatin licensing and DNA replication factor 1) | 2 | 61.4 | active
CDT1 (chromatin licensing and DNA replication factor 1) | 3 | 84.1 | inactive
RPS6KA1 (ribosomal protein S6 kinase A1) | 1 | 77.9 | active
RPS6KA1 (ribosomal protein S6 kinase A1) | 2 | 74 | active
RPS6KA1 (ribosomal protein S6 kinase A1) | 3 | 74.8 | active
PRDM13 (PR/SET domain 13) | 1 | 49.1 | active
PRDM13 (PR/SET domain 13) | 2 | 58.1 | active
PRDM13 (PR/SET domain 13) | 3 | 70.5 | active
SLC22A12 | 1 | 54.4 | active
SLC22A12 | 2 | 71.7 | active
SLC22A12 | 3 | 81.3 | inactive
CARMIL1 (capping protein regulator and myosin 1 linker 1) | 1 | 63 | active
CARMIL1 (capping protein regulator and myosin 1 linker 1) | 2 | 76.4 | active
CARMIL1 (capping protein regulator and myosin 1 linker 1) | 3 | 77.4 | active
MUSK (muscle associated receptor tyrosine kinase) | 1 | 84.7 | inactive
MUSK (muscle associated receptor tyrosine kinase) | 2 | 78.5 | active
MUSK (muscle associated receptor tyrosine kinase) | 3 | 85 | inactive
IFNAR2 (interferon alpha and beta receptor subunit 2) | 1 | 99 | inactive
IFNAR2 (interferon alpha and beta receptor subunit 2) | 2 | 86.9 | inactive
IFNAR2 (interferon alpha and beta receptor subunit 2) | 3 | 102 | inactive
BMP2 (bone morphogenetic protein 2) | 1 | 50.4 | active
BMP2 (bone morphogenetic protein 2) | 2 | 61.1 | active
BMP2 (bone morphogenetic protein 2) | 3 | 64.1 | active
INSRR (insulin receptor related receptor) | 1 | 61.8 | active
INSRR (insulin receptor related receptor) | 2 | 56.3 | active
INSRR (insulin receptor related receptor) | 3 | 60.6 | active
PCBD1 (pterin-4 alpha-carbinolamine dehydratase 1) | 1 | 71 | active
PCBD1 (pterin-4 alpha-carbinolamine dehydratase 1) | 2 | 73.8 | active
PCBD1 (pterin-4 alpha-carbinolamine dehydratase 1) | 3 | 83.4 | inactive
ABCG2 (ATP binding cassette subfamily G member 2 (JR blood group)) | 1 | 42.6 | active
ABCG2 (ATP binding cassette subfamily G member 2 (JR blood group)) | 2 | 85 | inactive
ABCG2 (ATP binding cassette subfamily G member 2 (JR blood group)) | 3 | 64.6 | active
PYGO2 (pygopus family PHD finger 2) | 1 | 46.8 | active
PYGO2 (pygopus family PHD finger 2) | 2 | 42 | active
PYGO2 (pygopus family PHD finger 2) | 3 | 65.6 | active
FGFR4 (fibroblast growth factor receptor 4) | 1 | 84.3 | inactive
FGFR4 (fibroblast growth factor receptor 4) | 2 | 72.1 | active
FGFR4 (fibroblast growth factor receptor 4) | 3 | 86.8 | inactive
